In patent publication US20140322216A1:
Results are given in words; binding and its absence hold for the method and conditions named. Some binding calls cover weakened binding; strength is not graded here.

Protein sequences, listed by entry. Tags and fused reporters are not part of them. Residues count along the entry.
UniProt P51654, residues 25-559: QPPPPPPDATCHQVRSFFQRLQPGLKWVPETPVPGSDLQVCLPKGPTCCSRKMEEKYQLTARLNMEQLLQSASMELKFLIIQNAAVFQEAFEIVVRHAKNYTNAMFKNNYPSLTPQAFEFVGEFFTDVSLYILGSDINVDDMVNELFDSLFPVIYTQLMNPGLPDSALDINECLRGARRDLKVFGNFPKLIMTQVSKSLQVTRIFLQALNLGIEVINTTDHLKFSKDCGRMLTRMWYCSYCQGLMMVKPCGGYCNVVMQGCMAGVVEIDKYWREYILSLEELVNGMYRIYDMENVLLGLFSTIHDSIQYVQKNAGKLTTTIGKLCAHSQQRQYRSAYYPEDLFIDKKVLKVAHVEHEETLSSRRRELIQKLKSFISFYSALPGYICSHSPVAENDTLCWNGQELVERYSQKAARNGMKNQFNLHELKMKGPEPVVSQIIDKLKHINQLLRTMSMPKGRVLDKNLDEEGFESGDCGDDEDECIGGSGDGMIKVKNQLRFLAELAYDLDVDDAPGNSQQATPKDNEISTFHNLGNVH

Legend:
[1] = target: full-length glycosylated recombinant hGPC3 protein expressed in a murine myeloma cell line (human) (UniProt P51654); experiment: ELISA on rhGPC3 precoated at 1 ug/ml, scFv titrated
[2] = target: GST protein [GST: P08515]; experiment: dot blot, 10 ng GST per spot, scFv detected with anti-V5 mAb and IR680 anti-mouse
[3] = target: full-length glycosylated recombinant hGPC3 protein expressed in a murine myeloma cell line (human) (UniProt P51654); experiment: dot blot, 10 ng antigen per spot, scFv detected with anti-V5 mAb and IR680 anti-mouse
[4] = target: full-length glycosylated recombinant hGPC3 protein expressed in a murine myeloma cell line (human) (UniProt P51654); experiment: single-point ELISA of scFv on full length hGPC3 protein expressed by mammalian cells

- binding [1]: binds
- binding [2]: no binding
- binding [3]: binds
- binding [4]: binds
B1: scFv 3D8 (scFv, V domains shown)
VH: QVQLVQSGGGLAQPGGSLRLSCAASGSSFSTFVLSWVRQTPGKGLQWVSTISGSGTSTYYADSVKGRFTVSRDNAKNTQYLQMNSLRAEDTAIYYCARHKSFGVQWLWGQGALVVRLL
VL: VHIVMTQSPLSLPVTLGQPASISCWSSQSLVYGDGNTYLNWFQQRPGQSPRRLIYKVSNRDSGVPDRFSGSGSGTDFTLKISRVEAEDVGVYYCMQGTHWPPGTFGGGTKLEIK
